{"source": "patent US20230279052", "about": "(published 2023)", "test": "general procedure: solution-phase peptide synthesis; EDCI·HCl/HOBt·H2O/NMM"}
{"substance": "(2S)-2-((2S)-3-(adamantan-1-yl)-2-((R)-2-((S)-2-amino-3-phenylpropanamido)-5-guanidinopentanamido)propanamido)-6-aminohexanamide", "values": [{"measurement": "final HPLC purity", "setting": "late stage modification step", "result": 99, "unit": "%"}]}
{"substance": "(10S,13S,16R)-13-((adamantan-1-yl)methyl)-16-((S)-2-amino-3-phenylpropanamido)-2-imino-4,12,15-trioxo-1,3,5,11,14-pentaazacyclononadecane-10-carboxamide", "values": [{"measurement": "cyclisation yield", "setting": "cyclisation step, overall", "result": 9, "unit": "%"}, {"measurement": "final HPLC purity", "setting": "whole synthesis", "result": 98.82, "unit": "%"}]}
